Measurements reported in PubChem BioAssay AID504791 (Drosophila RNAi Screening Center, 2011).
Purpose: 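Factors in Argonaute-based small RNA production and activity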 (primary screen). System: Drosophila S2-derived reporter cells. Knock-down reagent: long dsRNA against Drosophila genes, about 150-250 ng dsRNA per well (siRNA assay); about 80-120 ng (miRNA assay). Time to read-out: about 5 days (siRNA assay); about 4 days (miRNA assay). Challenge: copper sulfate induction of reporters: 25 µM (siRNA assay); 200 mM stated (miRNA assay), 1-2 days before reading. Measured: 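Per-well ratio of Renilla over firefly light, expressed relative to that plate's average ratio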. Direction: siRNA reporter hit score: higher = 3 marks a strong hit with raised ratio; -3 a strong hit with lowered ratio. Rule for the call: 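First-pass picks had plate-scaled ratios over 1.5 for the siRNA assay, over 1.6 for the miRNA assay, or under 0.6; two distinct dsRNAs had to score alike on retest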.
The screen tested about 23,000 reagents; this is a random part of those that have a named target and a result. Of all reagents, 199 (0.86%) were called active. 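Plate-scaled ratios behind the calls are not deposited; printed light signals are raw; many rows marked increased or decreased are still called inactive.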 The numbers tell different reagents against one gene apart. A plus sign joins genes that one reagent is predicted to hit.

Gene | dsRNA no. | siRNA reporter hit score | stable siRNA reporter change | miRNA reporter change | stable assay Renilla, run 1 (luminescence) | stable assay firefly, run 1 (luminescence) | activity call
LManV | 1 | – | – | – | 7110 | 1.03e6 | inactive
CG10943 | 1 | – | – | – | 7206 | 4.28e5 | inactive
Cyp28d1 | 1 | – | – | – | 13700 | 3.37e5 | inactive
Cyp28d1 | 2 | – | – | – | 8779 | 4.96e5 | inactive
EMC10 | 1 | – | – | – | 8086 | 5.53e5 | inactive
CG3589 | 1 | – | – | – | 23567 | 1.98e6 | inactive
CG12071 | 1 | – | reporter ratio raised past the hit cutoff | – | 6694 | 2.45e5 | inactive
CG12071 | 2 | – | – | – | 5215 | 4.62e5 | inactive
CG3701 (retired record) | 1 | – | – | – | 6631 | 4.71e5 | inactive
CG3701 (retired record) | 2 | – | – | – | 6675 | 5.27e5 | inactive
atms | 1 | – | – | – | 6043 | 3.47e5 | inactive
CG17991 | 1 | – | – | – | 5507 | 3.46e5 | inactive
Cpr65Eb | 1 | – | – | – | 6740 | 4.61e5 | inactive
Mcad | 1 | – | – | – | 8067 | 4.56e5 | inactive
robl | 1 | – | – | – | 7432 | 4.67e5 | inactive
CG2680 | 1 | – | – | – | 6886 | 4.30e5 | inactive
LanA | 1 | – | – | – | 7214 | 3.89e5 | inactive
Tsp3A | 1 | – | – | – | 6114 | 4.08e5 | inactive
Rpp14b | 1 | – | – | – | 6942 | 4.39e5 | inactive
NijC | 1 | – | – | – | 6910 | 4.00e5 | inactive
Trm7-32 | 1 | – | – | – | 8537 | 2.51e5 | inactive
M1BP | 1 | – | – | – | 7246 | 3.84e5 | inactive
Ama | 1 | – | – | – | 7599 | 3.97e5 | inactive
Scp2 | 1 | – | – | – | 3891 | 3.78e5 | inactive
Scp2 | 2 | – | – | – | 7855 | 3.87e5 | inactive
Ac3 | 1 | – | – | – | 8357 | 4.04e5 | inactive
CG42237 | 1 | – | – | – | 6151 | 4.98e5 | inactive
tra2 | 1 | – | – | – | 8231 | 4.61e5 | inactive
js | 1 | – | – | – | 7011 | 3.60e5 | inactive
Cpr78Cb | 1 | – | – | – | 7158 | 4.09e5 | inactive
sced | 1 | – | – | – | 1.72e5 | 1.09e6 | inactive
CG11878 | 1 | – | – | – | 9055 | 4.71e5 | inactive
shf | 1 | – | – | – | 5547 | 3.61e5 | inactive
Prosalpha2 | 1 | – | – | – | 5655 | 2.49e5 | inactive
CG6847 | 1 | – | – | – | 5576 | 4.52e5 | inactive
CG6847 | 2 | – | – | – | 5331 | 5.28e5 | inactive
moon | 1 | – | – | – | 4307 | 3.01e5 | inactive
pall | 1 | – | – | – | 7963 | 4.76e5 | inactive
by | 1 | – | – | – | 6479 | 4.01e5 | inactive
CG14151 | 1 | – | – | – | 9415 | 7.77e5 | inactive
Prp16 | 1 | – | – | – | 10175 | 6.10e5 | inactive
Prp16 | 2 | – | – | – | 6379 | 4.57e5 | inactive
twe | 1 | – | – | – | 2.97e5 | 1.19e6 | inactive
CG32668 | 1 | – | – | – | 4967 | 3.47e5 | inactive
CG7920 | 1 | – | – | – | 7484 | 4.88e5 | inactive
CG7920 | 2 | – | – | – | 9483 | 6.20e5 | inactive
Mal-A2 | 1 | – | – | – | 5768 | 3.87e5 | inactive
CG10345 | 1 | – | – | – | 8601 | 3.27e5 | inactive
RpL30 | 1 | – | – | – | 8610 | 5.12e5 | inactive
RAF2 | 1 | – | – | – | 7526 | 2.45e5 | inactive
RAF2 | 2 | – | – | – | 7922 | 4.07e5 | inactive
CG16824 | 1 | -3 | – | – | 7083 | 4.65e5 | inactive
cN-IIIB | 1 | – | – | – | 7571 | 1.62e6 | inactive
eIF4G2 | 1 | – | – | – | 9044 | 5.35e5 | inactive
eIF4G2 | 2 | – | – | – | 9042 | 5.56e5 | inactive
CG10395 | 1 | – | – | – | 10174 | 1.55e6 | inactive
grsm | 1 | – | reporter ratio lowered past the hit cutoff | – | 6206 | 5.73e5 | inactive
grsm | 2 | – | – | – | 6083 | 4.65e5 | inactive
Dhrs4 | 1 | – | – | – | 8513 | 3.70e5 | inactive
tctn + B9d2 | 1 | – | – | – | 9087 | 5.47e5 | inactive
dj | 1 | – | – | – | 7276 | 3.36e5 | inactive
link | 1 | – | – | reporter ratio lowered past the hit cutoff | 4808 | 3.23e5 | inactive
CG32280 | 1 | – | – | – | 4840 | 3.66e5 | inactive
CG13723 | 1 | – | – | – | 7339 | 4.26e5 | inactive
Obp83a | 1 | – | – | – | 6963 | 5.44e5 | inactive
Or33a | 1 | – | – | – | 7039 | 4.07e5 | inactive
Dok | 1 | – | – | – | 5652 | 3.17e5 | inactive
CG31515 | 1 | – | – | – | 4475 | 4.27e5 | inactive
CG31544 (retired record) | 1 | – | – | – | 6088 | 4.48e5 | inactive
CG8326 | 1 | – | – | – | 8151 | 4.19e5 | inactive
Rad17 | 1 | – | – | – | 7162 | 4.14e5 | inactive
Desat1 | 1 | – | – | – | 4944 | 2.48e5 | inactive
CG1635 | 1 | – | – | – | 7354 | 4.80e5 | inactive
Cyp301a1 | 1 | – | – | – | 5460 | 2.38e5 | inactive
lncRNA:roX2 | 1 | – | – | – | 8695 | 5.41e5 | inactive
XNP | 1 | – | – | – | 7816 | 6.22e5 | inactive
trsn | 1 | – | – | – | 6852 | 4.25e5 | inactive
Alk | 1 | – | – | – | 4487 | 3.83e5 | inactive
Alk | 2 | – | – | – | 3579 | 2.71e5 | inactive
Reps | 1 | – | – | – | 7208 | 3.55e5 | inactive
Acbp6 | 1 | – | – | – | 5864 | 4.15e5 | inactive
Ucp4C | 1 | – | – | – | 6658 | 3.32e5 | inactive
CG10948 | 1 | – | – | – | 7782 | 5.42e5 | inactive
